Test results from PubChem BioAssay (EPA / NIEHS).
Inconclusive means that the source gave no clear call. Such entries were picked first, then a sample of the others. For some assays here: Where the call is inconclusive, the potency comes from a doubtful curve fit. Calls of active or inactive are those of the source. Rule for the calls: active = hit-call score of the fitted dose curve at least 0.9, where 1 is the maximum; inconclusive = response in the unintended direction; inactive = score below 0.9.

Amino acid sequences for entries named in this document (tags omitted). A change or cut given only in a name is not applied to a line headed by its entry.
UniProt P33261, whole entry, looked up: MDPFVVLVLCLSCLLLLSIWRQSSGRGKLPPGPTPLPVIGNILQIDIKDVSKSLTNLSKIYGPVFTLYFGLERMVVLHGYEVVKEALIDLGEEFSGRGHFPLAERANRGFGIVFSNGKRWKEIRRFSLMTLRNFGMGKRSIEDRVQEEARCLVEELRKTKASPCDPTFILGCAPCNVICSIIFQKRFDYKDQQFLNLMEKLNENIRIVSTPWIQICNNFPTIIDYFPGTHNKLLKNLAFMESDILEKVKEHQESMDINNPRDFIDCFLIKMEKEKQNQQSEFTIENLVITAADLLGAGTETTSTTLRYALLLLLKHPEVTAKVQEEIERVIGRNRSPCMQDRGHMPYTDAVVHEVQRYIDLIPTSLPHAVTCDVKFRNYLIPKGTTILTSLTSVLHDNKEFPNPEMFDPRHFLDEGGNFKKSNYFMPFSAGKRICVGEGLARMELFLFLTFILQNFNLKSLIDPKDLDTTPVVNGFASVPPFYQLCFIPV
UniProt P04406: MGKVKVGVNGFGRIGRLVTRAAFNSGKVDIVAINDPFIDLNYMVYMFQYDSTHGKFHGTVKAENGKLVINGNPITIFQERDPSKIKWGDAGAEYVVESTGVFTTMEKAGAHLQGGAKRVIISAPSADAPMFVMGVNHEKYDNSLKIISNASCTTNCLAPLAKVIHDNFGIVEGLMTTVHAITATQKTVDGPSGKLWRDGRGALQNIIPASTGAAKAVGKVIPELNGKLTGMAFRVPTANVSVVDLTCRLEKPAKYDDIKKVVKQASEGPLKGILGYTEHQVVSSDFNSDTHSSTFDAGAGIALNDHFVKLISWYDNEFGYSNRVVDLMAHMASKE
UniProt P20813: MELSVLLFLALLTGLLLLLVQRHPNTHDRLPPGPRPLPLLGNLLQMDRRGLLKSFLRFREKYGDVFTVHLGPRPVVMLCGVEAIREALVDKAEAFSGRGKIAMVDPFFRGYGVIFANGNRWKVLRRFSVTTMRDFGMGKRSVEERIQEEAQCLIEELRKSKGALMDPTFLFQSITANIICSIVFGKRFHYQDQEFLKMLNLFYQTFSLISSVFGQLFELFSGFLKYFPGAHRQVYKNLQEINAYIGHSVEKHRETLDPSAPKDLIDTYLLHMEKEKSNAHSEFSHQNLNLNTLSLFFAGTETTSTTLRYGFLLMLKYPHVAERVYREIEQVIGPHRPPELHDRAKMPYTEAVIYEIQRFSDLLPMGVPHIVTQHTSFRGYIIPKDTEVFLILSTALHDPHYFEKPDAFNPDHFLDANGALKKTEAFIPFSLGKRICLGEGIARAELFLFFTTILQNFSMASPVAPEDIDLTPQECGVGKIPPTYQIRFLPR
UniProt P11712, whole entry, looked up: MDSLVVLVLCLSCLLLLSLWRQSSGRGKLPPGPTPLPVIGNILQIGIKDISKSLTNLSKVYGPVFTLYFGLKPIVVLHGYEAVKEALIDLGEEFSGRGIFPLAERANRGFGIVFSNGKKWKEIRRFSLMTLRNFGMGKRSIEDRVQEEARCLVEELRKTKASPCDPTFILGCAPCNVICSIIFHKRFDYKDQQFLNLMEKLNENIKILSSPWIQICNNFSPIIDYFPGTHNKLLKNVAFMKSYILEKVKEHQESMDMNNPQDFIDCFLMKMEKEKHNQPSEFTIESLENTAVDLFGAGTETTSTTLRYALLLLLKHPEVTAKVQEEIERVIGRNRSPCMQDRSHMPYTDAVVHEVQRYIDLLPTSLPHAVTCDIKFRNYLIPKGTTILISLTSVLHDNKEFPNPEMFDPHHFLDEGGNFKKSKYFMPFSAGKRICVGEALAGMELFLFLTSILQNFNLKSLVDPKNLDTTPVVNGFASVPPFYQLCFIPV
UniProt Q9UNQ0: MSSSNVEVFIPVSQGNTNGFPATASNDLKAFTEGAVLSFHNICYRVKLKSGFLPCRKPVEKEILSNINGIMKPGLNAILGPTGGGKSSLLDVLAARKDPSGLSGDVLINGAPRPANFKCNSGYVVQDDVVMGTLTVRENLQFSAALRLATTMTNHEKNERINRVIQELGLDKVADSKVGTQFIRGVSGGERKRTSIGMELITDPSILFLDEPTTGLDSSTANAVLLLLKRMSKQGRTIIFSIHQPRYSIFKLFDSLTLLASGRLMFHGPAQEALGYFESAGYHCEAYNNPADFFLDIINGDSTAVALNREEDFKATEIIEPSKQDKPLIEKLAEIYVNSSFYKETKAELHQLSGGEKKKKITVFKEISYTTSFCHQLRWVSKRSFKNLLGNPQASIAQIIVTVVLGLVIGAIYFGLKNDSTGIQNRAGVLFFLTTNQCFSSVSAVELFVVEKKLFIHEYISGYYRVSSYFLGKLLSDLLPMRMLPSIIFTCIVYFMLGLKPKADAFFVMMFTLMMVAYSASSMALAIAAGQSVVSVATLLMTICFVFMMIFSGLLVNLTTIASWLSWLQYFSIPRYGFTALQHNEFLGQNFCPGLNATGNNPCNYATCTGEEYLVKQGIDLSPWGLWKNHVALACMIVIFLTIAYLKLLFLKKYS

Legend:
[1] = Tanguay_ZF_120hpf_TR_legacy: (Legacy) Oregon State University Tanguay Lab 120 Hour Post-fertilization zebrafish Assay for Touch Response (AID 2283667)
In short: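 Tropical 5D wild-type zebrafish embryos were exposed statically in sealed, foil-covered plates at 28C until 120 hpf, with 0.64% (vol/vol) final DMSO. Touch response was scored as present or absent; embryos that died were not scored.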

[2] = read-out: organic anion transporter (SLCO1B1), SLCO1B1 (gene 10599); experiment: CLD_SLCO1B1_6hr: CellzDirect (CLD) Gene Expression Assay for organic anion transporter (SLCO1B1) at 6 hours (AID 2283668);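 note: active means mRNA induction above DMSO baseline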
In short: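 Primary human hepatocytes dosed daily with test chemicals (multiple concentrations) in 0.2% DMSO vehicle; harvested at 6 h. SLCO1B1 mRNA quantified by qNPA chemiluminescence, fitted as gain-of-signal versus DMSO; cytotoxicity from phase-contrast morphology flagged alongside.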

[3] = read-out: sulfotransferase (SULT2A), SULT2A1 (gene 6822); experiment: CLD_SULT2A_6hr: CellzDirect (CLD) Gene Expression Assay for sulfotransferase (SULT2A) at 6 hours (AID 2283669);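 note: hits raise transcript level above the DMSO vehicle baseline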
In short: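 Primary human hepatocytes from two donor preparations were dosed daily with chemicals or 0.2% DMSO and harvested at 6 h. Transcript induction read by qNPA chemiluminescence, fitted for gain of signal relative to DMSO; morphology-based cytotoxicity annotated.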

[4] = CLD_ACTIN_24hr: CellzDirect (CLD) Gene Expression Assay for Baseline Control (Actin) at 24 hours (AID 2283670)
In short: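 Primary human hepatocytes dosed over multiple concentrations with 0.2% DMSO vehicle; actin mRNA measured at 24 h by qNPA chemiluminescence. Background control endpoint, fitted as gain of signal versus DMSO.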

[5] = CLD_ACTIN_6hr: CellzDirect (CLD) Gene Expression Assay for Baseline Control (Actin) at 6 hours (AID 2283676)
In short: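 Primary human hepatocytes dosed with fresh chemical solutions (vehicle 0.2% DMSO), harvested at 6 h. Actin mRNA quantified by quantitative nuclease protection assay with chemiluminescent read-out, as background control relative to DMSO.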

[6] = read-out: Cytochrome P450 2C19 (Homo sapiens) (UniProt P33261); experiment: CLD_CYP2C19_6hr: CellzDirect (CLD) Gene Expression Assay for xenobiotic metabolism (CYP2C19) at 6 hours (AID 2283678)
In short: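 Primary human hepatocytes from two donor preparations were dosed daily, with 0.2% DMSO as vehicle, and harvested 6 h after dosing. CYP2C19 mRNA induction was measured by qNPA chemiluminescence and fitted as gain of signal against DMSO.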

[7] = read-out: Glyceraldehyde-3-phosphate dehydrogenase (Homo sapiens) (UniProt P04406); experiment: CLD_GAPDH_6hr: CellzDirect (CLD) Gene Expression Assay for Baseline Control (Glyceraldehyde 3-phosphate dehydrogenase) at 6 hours (AID 2283681)
In short: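 Primary human hepatocytes from two donor preparations, dosed at multiple concentrations with 0.2% DMSO vehicle; GAPDH mRNA measured 6 h after dosing by chemiluminescent quantitative nuclease protection assay (qNPA) on denatured lysates. Serves as background control; cytotoxicity annotated by morphology.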

[8] = read-out: HMG-CoA synthase (HMGCS2), HMGCS2 (gene 3158); experiment: CLD_HMGCS2_6hr: CellzDirect (CLD) Gene Expression Assay for HMG-CoA synthase (HMGCS2) at 6 hours (AID 2283682);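 note: actives raise HMGCS2 transcript above the 0.2% DMSO vehicle baseline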
In short: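 Primary human hepatocytes dosed daily with fresh chemical, 0.2% DMSO vehicle; HMGCS2 mRNA measured at 6 h by qNPA chemiluminescence. Gain of signal fitted against DMSO; cytotoxicity flagged from phase-contrast morphology.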

[9] = read-out: ABC Transporter (ABCB1), ABCB1 (gene 5243); experiment: CLD_ABCB1_24hr: CellzDirect (CLD) Gene Expression Assay for ABC Transporter (ABCB1) at 24 hours (AID 2283684);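 note: potency for increase in ABCB1 mRNA relative to DMSO vehicle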
In short: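 Primary human hepatocytes, two donor preparations, dosed daily with fresh solutions; vehicle 0.2% DMSO; harvested at 24 h. ABCB1 mRNA measured by quantitative nuclease protection assay (chemiluminescence); morphology-based cytotoxicity annotated.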

[10] = read-out: Cytochrome P450 2B6 (Homo sapiens) (UniProt P20813); experiment: CLD_CYP2B6_24hr: CellzDirect (CLD) Gene Expression Assay for xenobiotic metabolism (CYP2B6) at 24 hours (AID 2283686)
In short: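 Primary human hepatocytes dosed daily for two days with fresh solutions, harvested at 24 hours; mRNA induction quantified by qNPA chemiluminescence, gain of signal vs 0.2% DMSO vehicle. Cytotoxicity annotated from phase-contrast morphology.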

[11] = read-out: Cytochrome P450 2C19 (Homo sapiens) (UniProt P33261); experiment: CLD_CYP2C19_24hr: CellzDirect (CLD) Gene Expression Assay for xenobiotic metabolism (CYP2C19) at 24 hours (AID 2283687);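 note: activity means mRNA induction above DMSO vehicle baseline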
In short: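 Primary human hepatocytes (two donor preparations) dosed daily with fresh test chemical in 0.2% DMSO vehicle; CYP2C19 mRNA induction measured at 24 h by quantitative nuclease protection assay with chemiluminescence, fitted for gain of signal versus DMSO.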

[12] = read-out: Cytochrome P450 2C9 (Homo sapiens) (UniProt P11712); experiment: CLD_CYP2C9_24hr: CellzDirect (CLD) Gene Expression Assay for xenobiotic metabolism (CYP2C9) at 24 hours (AID 2283688)
In short: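 Primary human hepatocytes from two donor preparations, dosed daily for two days at multiple concentrations; vehicle 0.2% DMSO. CYP2C9 mRNA induction at 24 h measured by qNPA chemiluminescence relative to DMSO; cytotoxicity annotated from morphology.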

[13] = read-out: organic anion transporter (SLCO1B1), SLCO1B1 (gene 10599); experiment: CLD_SLCO1B1_24hr: CellzDirect (CLD) Gene Expression Assay for organic anion transporter (SLCO1B1) at 24 hours (AID 2283690)
In short: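 Primary human hepatocytes (two donor preparations) dosed daily for two days with chemicals at multiple concentrations, 0.2% DMSO vehicle. SLCO1B1 mRNA at 24 h measured by qNPA chemiluminescence; induction fitted relative to DMSO.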

[14] = read-out: HMG-CoA synthase (HMGCS2), HMGCS2 (gene 3158); experiment: CLD_HMGCS2_24hr: CellzDirect (CLD) Gene Expression Assay for HMG-CoA synthase (HMGCS2) at 24 hours (AID 2283691)
In short: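 Primary human hepatocytes from two donor preparations, dosed daily with fresh solutions; vehicle 0.2% DMSO, 24 h harvest. HMGCS2 mRNA quantified by qNPA with S1 nuclease digestion and chemiluminescence; gain fitted versus DMSO, cytotoxicity annotated by morphology.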

[15] = read-out: Glyceraldehyde-3-phosphate dehydrogenase (Homo sapiens) (UniProt P04406); experiment: CLD_GAPDH_24hr: CellzDirect (CLD) Gene Expression Assay for Baseline Control (Glyceraldehyde 3-phosphate dehydrogenase) at 24 hours (AID 2283692)
In short: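 Primary human hepatocytes (two donor preparations) dosed daily for two days, 0.2% DMSO vehicle; GAPDH mRNA measured at 24 h by qNPA chemiluminescence as a background control, gain-of-signal fitted against DMSO.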

[16] = read-out: ABC Transporter (ABCB1), ABCB1 (gene 5243); experiment: CLD_ABCB1_48hr: CellzDirect (CLD) Gene Expression Assay for ABC Transporter (ABCB1) at 48 hours (AID 2283695);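 note: potency for induction meaning increase of mRNA over DMSO vehicle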
In short: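 Primary human hepatocytes from two donor preparations dosed daily on two consecutive days with 0.2% DMSO vehicle. Harvest at 48 h. ABCB1 mRNA quantified by qNPA with chemiluminescence and fitted for gain of signal versus DMSO.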

[17] = read-out: Cytochrome P450 2C19 (Homo sapiens) (UniProt P33261); experiment: CLD_CYP2C19_48hr: CellzDirect (CLD) Gene Expression Assay for xenobiotic metabolism (CYP2C19) at 48 hours (AID 2283700);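 note: fitted upward so actives raise CYP2C19 mRNA above the 0.2% DMSO vehicle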
In short: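 Primary human hepatocytes (two donor preparations) dosed daily for two days, harvested at 48 h; CYP2C19 mRNA induction measured by qNPA chemiluminescence. Gain-of-signal fitted relative to 0.2% DMSO vehicle as baseline.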

[18] = read-out: Broad substrate specificity ATP-binding cassette transporter ABCG2 (Homo sapiens) (UniProt Q9UNQ0); experiment: CLD_ABCG2_48hr: CellzDirect (CLD) Gene Expression Assay for ABC Transporter (ABCG2) at 48 hours (AID 2283704)
In short: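 Primary human hepatocytes from two donors, dosed daily for 2 days, 0.2% DMSO vehicle, several concentrations. ABCG2 mRNA at 48 h by qNPA chemiluminescence, gain fitted versus DMSO; cytotoxicity flagged by morphology.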

[19] = read-out: xenobiotic metabolism (CYP1A1), CYP1A1 (gene 1543); experiment: CLD_CYP1A1_48hr: CellzDirect (CLD) Gene Expression Assay for xenobiotic metabolism (CYP1A1) at 48 hours (AID 2283705)
In short: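 Primary human hepatocytes from two donors dosed daily for two days at multiple concentrations, 0.2% DMSO vehicle; CYP1A1 mRNA induction at 48 h by qNPA chemiluminescence. Cytotoxicity noted by phase-contrast morphology.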

[20] = read-out: organic anion transporter (SLCO1B1), SLCO1B1 (gene 10599); experiment: CLD_SLCO1B1_48hr: CellzDirect (CLD) Gene Expression Assay for organic anion transporter (SLCO1B1) at 48 hours (AID 2283707)
In short: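 Primary human hepatocytes from two donor preparations dosed daily for two days with multiple concentrations, 0.2% DMSO vehicle. SLCO1B1 mRNA at 48 h by quantitative nuclease protection assay, chemiluminescence; gain-of-signal fitted versus DMSO.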

[21] = read-out: alkyl and aryl transferase (GSTA2), GSTA2 (gene 2939); experiment: CLD_GSTA2_48hr: CellzDirect (CLD) Gene Expression Assay for alkyl and aryl transferase (GSTA2) at 48 hours (AID 2283708);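 note: active means mRNA induction above DMSO vehicle baseline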
In short: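 Primary human hepatocytes dosed daily for two days (0.2% DMSO vehicle), harvested at 48 h. GSTA2 mRNA induction measured by quantitative nuclease protection assay with chemiluminescent imaging, fitted for gain of signal relative to DMSO.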

[22] = read-out: HMG-CoA synthase (HMGCS2), HMGCS2 (gene 3158); experiment: CLD_HMGCS2_48hr: CellzDirect (CLD) Gene Expression Assay for HMG-CoA synthase (HMGCS2) at 48 hours (AID 2283711)
In short: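 Primary human hepatocytes from two donors dosed daily for two days, 0.2% DMSO vehicle. HMGCS2 mRNA measured 48 h after dosing by quantitative nuclease protection assay with chemiluminescent read-out; induction fitted relative to DMSO, cytotoxicity flagged by microscopy.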

[23] = CCTE_Harrill_HTTr_CellCount_MCF7: CCTE's Cell Proliferation Assessment for the High-Throughput Transcriptomics (HTTr) Platform, Harrill Lab (AID 2284012);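 note: cells exposed to compound for six hours; intended direction is loss of nuclei count meaning fewer cells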
In short: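 MCF-7 cells were exposed for 6 h to an eight-point dilution series; Hoechst-labeled nuclei were counted by high content imaging. Curves were fitted bidirectionally against DMSO as negative control and baseline, with signal loss indicating reduced cell count.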

[24] = CCTE_Deisenroth_AIME_384WELL_CTox_Active: Cytotoxicity Assessment (CTOX) in CCTE's 384-well Estrogen Receptor Transactivation Assay with AIME metabolic competence (metabolism positive), Deisenroth Lab (AID 2284037);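 note: chemicals first conditioned 2 h by alginate-bound induced rat liver S9 before cells; activity means signal loss indicating cell death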
In short: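 VM7Luc4E2 breast cells received medium pre-incubated 2 h with chemical over alginate microspheres holding induced male Sprague Dawley rat liver S9; viability read 24 h later by protease-substrate fluorescence. Loss of signal, bidirectional fit, 0.002–200 uM.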

[25] = CCTE_Deisenroth_AIME_384WELL_CTox_Inactive: Cytotoxicity Assessment (CTOX) in CCTE's 384-well Estrogen Receptor Transactivation Assay without AIME metabolic competence (metabolism negative), Deisenroth Lab (AID 2284039);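 note: cell viability via live-cell protease substrate cleaved to fluorescent probe; cells exposed 24 h to medium preincubated 2 h with alginate-water beads without S9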
In short: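 VM7Luc4E2 cells, metabolism-negative arm: test chemicals (0.002–200 uM, 10 points) pre-incubated 2 h with alginate-water microspheres, then medium transferred to cells for 24 h. Viability read as protease-substrate cleavage to fluorescent probe; loss-of-signal, bidirectional fitting.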

[26] = CCTE_Shafer_MEA_acute_AB: CCTE's Alamar Blue Assay for Cytotoxicity in the Neural Acute Assay, Shafer Lab (AID 2284069);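 note: active compounds lower the viability signal compared with DMSO wells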
In short: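 Primary rat cortical neurons on MEA plates, exposed acutely after baseline recording on day 13 or 15 post-plating. Viability by CellTiter Blue resazurin reduction (1:6 reagent dilution), fluorescence 544/590 nm; loss of signal versus DMSO.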

Measured: AC50

CC(C)=CC1C(C(=O)OCc2coc(Cc3ccccc3)c2)C1(C)C (stereo unspecified)
active: [10] 5.63 µM
inactive: [1] | [6] | [11] | [12] | [13] | [15] | [17] | [18] | [20] | [21] | [24] | [25] | [26]
inconclusive: [2] 20 µM | [3] 20 µM | [4] 20 µM | [5] 20 µM | [7] 20 µM | [8] 20 µM | [9] 20 µM | [14] 20 µM | [16] 20 µM | [19] 20 µM | [22] 20 µM | [23] 50 µM
